The target in assay [1] is N-terminal eGFP fused human CHFR mutant lacking cysteine-rich domain (human) (UniProt Q96EP1). In words: co-IP; anti-GFP agarose beads (GFP-Trap) pull-down from lysates of HMEC transfected with eGFP-CHFR constructs, 48 h after transfection; 150 ug lysate protein, 2 h at 4 C; immunoblot for endogenous VE-cadherin; ratio of VE-cadherin to GFP-CHFR quantified. (In general: A western blot detects proteins with antibodies after separation by electrophoresis.)

Sequences of proteins named here, by UniProt entry; tags and fusion partners are left off. A change or cut given only in a name is not applied to a line headed by its entry.
UniProt Q96EP1: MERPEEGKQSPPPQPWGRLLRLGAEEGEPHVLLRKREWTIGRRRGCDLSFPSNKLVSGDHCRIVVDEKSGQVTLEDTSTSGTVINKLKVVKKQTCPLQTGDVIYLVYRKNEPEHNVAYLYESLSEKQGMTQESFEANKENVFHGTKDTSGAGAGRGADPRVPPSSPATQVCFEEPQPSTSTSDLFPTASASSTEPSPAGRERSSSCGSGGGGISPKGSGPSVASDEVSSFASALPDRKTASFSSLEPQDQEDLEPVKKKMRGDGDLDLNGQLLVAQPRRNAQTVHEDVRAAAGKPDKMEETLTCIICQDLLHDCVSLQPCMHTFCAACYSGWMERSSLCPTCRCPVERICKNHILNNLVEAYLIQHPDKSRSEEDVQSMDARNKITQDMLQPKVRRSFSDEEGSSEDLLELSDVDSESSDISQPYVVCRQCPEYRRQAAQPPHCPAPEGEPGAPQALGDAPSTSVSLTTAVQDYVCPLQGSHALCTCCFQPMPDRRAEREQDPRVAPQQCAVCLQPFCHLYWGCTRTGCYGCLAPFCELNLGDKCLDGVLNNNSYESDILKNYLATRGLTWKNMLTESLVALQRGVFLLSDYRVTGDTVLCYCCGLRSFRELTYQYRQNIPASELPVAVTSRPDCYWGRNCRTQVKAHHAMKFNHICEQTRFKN

For assay [2], the target named is N-terminal eGFP fused human CHFR mutant lacking poly-ADP ribose binding zinc-finger domain (human) (UniProt Q96EP1). The assay is described as above.

These are yes or no findings as the source states them, for the method shown. In cells and extracts the contact can be indirect. Binding can be weak; no strength is given.

B1: VE-cadherin, endogenous in HMEC (protein, UniProt P33151 48-784)
chain: DWIWNQMHIDEEKNTSLPHHVGKIKSSVSRKNAKYLLKGEYVGKVFRVDAETGDVFAIERLDRENISEYHLTAVIVDKDTGENLETPSSFTIKVHDVNDNWPVFTHRLFNASVPESSAVGTSVISVTAVDADDPTVGDHASVMYQILKGKEYFAIDNSGRIITITKSLDREKQARYEIVVEARDAQGLRGDSGTATVLVTLQDINDNFPFFTQTKYTFVVPEDTRVGTSVGSLFVEDPDEPQNRMTKYSILRGDYQDAFTIETNPAHNEGIIKPMKPLDYEYIQQYSFIVEATDPTIDLRYMSPPAGNRAQVIINITDVDEPPIFQQPFYHFQLKENQKKPLIGTVLAMDPDAARHSIGYSIRRTSDKGQFFRVTKKGDIYNEKELDREVYPWYNLTVEAKELDSTGTPTGKESIVQVHIEVLDENDNAPEFAKPYQPKVCENAVHGQLVLQISAIDKDITPRNVKFKFILNTENNFTLTDNHDNTANITVKYGQFDREHTKVHFLPVVISDNGMPSRTGTSTLTVAVCKCNEQGEFTFCEDMAAQVGVSIQAVVAILLCILTITVITLLIFLRRRLRKQARAHGKSVPEIHEQLVTYDEEGGGEMDTTSYDVSVLNSVRRGGAKPPRPALDARPSLYAQVQKPPRHAPGAHGGPGEMAAMIEVKKDEADHDGDGPPYDTLHIYGYEGSESIAESLSSLGTDSSDSDVDYDFLNDWGPRFKMLAELYGSDPREELLY
In the case of B1, the binding entry in assay [1] and in assay [2] was “binds” in each case.

The record behind these values is paper PMC10584835.
